This is one part of the list.
Compound: CC1Cc2ccccc2N1C(=O)C1CCCN(C1)C(=O)CCl (mixture of isomers) [TRIM25 ligand 11 (diastereomer mixture)]
Assay: probe-labelled cysteine peptide fold change vs DMSO (competition) (log2 fold change); higher = less target engagement (more negative = stronger competition)
Details: THP-1, incubation time: 4 h
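Note: competitive chemoproteomic profiling in live THP-1 cells with an iodoacetamide desthiobiotin (IA-DTB) probe, comparing probe-labelled peptide intensities in compound-treated cells against DMSO-treated controls.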

By UniProt entry, the sequences of proteins in these tests, tags left out. Where a name states a change or a piece, a line headed by the entry shows the natural chain unless it says otherwise.
UniProt Q9UBF2: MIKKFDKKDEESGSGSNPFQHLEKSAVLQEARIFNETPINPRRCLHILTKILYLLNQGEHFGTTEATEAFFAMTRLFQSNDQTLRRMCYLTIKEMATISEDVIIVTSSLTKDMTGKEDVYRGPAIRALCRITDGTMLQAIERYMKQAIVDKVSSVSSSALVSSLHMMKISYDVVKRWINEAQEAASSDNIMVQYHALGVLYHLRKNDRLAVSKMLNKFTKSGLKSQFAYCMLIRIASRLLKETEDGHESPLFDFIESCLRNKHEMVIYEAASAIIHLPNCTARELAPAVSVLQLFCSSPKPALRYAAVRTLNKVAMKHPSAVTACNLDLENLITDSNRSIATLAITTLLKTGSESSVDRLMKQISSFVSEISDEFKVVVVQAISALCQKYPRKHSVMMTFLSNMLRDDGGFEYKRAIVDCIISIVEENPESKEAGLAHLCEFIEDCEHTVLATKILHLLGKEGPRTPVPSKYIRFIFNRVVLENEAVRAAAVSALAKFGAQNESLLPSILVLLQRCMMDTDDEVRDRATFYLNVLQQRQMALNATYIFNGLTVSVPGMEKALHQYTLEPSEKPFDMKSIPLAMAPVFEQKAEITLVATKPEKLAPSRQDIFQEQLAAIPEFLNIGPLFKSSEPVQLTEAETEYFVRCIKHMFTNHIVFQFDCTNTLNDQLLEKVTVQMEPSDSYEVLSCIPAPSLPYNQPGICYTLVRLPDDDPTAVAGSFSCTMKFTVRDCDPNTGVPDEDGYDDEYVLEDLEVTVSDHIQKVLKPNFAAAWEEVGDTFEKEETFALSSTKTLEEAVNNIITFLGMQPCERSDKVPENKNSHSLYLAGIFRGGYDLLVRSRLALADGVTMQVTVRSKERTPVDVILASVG
UniProt P09543: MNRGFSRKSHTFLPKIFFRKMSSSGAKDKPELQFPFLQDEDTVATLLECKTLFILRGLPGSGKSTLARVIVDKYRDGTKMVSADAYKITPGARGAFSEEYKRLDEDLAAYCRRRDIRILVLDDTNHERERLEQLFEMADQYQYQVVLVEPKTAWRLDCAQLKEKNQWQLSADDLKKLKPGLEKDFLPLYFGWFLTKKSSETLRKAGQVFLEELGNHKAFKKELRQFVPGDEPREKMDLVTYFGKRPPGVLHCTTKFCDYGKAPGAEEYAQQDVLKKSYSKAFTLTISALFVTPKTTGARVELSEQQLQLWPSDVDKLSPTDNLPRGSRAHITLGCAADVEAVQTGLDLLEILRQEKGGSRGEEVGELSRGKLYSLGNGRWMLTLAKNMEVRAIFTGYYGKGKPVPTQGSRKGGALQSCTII
UniProt Q9Y5P4: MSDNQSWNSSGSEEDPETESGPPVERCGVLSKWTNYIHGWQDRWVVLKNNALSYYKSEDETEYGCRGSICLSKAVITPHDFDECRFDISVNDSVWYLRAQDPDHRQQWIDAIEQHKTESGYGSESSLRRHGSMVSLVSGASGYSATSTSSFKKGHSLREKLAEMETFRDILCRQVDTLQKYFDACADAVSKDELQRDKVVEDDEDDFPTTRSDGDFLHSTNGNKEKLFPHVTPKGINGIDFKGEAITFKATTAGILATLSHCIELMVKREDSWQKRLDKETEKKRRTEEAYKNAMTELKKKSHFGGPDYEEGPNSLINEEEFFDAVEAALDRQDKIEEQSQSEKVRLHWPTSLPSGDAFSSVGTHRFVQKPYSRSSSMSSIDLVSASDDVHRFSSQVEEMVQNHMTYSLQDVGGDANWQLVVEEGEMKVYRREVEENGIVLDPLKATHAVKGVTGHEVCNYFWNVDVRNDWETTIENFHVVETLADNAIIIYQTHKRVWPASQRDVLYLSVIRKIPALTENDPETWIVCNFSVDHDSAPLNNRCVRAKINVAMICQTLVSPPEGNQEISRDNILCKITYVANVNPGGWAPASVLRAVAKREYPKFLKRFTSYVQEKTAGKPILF
UniProt P53621: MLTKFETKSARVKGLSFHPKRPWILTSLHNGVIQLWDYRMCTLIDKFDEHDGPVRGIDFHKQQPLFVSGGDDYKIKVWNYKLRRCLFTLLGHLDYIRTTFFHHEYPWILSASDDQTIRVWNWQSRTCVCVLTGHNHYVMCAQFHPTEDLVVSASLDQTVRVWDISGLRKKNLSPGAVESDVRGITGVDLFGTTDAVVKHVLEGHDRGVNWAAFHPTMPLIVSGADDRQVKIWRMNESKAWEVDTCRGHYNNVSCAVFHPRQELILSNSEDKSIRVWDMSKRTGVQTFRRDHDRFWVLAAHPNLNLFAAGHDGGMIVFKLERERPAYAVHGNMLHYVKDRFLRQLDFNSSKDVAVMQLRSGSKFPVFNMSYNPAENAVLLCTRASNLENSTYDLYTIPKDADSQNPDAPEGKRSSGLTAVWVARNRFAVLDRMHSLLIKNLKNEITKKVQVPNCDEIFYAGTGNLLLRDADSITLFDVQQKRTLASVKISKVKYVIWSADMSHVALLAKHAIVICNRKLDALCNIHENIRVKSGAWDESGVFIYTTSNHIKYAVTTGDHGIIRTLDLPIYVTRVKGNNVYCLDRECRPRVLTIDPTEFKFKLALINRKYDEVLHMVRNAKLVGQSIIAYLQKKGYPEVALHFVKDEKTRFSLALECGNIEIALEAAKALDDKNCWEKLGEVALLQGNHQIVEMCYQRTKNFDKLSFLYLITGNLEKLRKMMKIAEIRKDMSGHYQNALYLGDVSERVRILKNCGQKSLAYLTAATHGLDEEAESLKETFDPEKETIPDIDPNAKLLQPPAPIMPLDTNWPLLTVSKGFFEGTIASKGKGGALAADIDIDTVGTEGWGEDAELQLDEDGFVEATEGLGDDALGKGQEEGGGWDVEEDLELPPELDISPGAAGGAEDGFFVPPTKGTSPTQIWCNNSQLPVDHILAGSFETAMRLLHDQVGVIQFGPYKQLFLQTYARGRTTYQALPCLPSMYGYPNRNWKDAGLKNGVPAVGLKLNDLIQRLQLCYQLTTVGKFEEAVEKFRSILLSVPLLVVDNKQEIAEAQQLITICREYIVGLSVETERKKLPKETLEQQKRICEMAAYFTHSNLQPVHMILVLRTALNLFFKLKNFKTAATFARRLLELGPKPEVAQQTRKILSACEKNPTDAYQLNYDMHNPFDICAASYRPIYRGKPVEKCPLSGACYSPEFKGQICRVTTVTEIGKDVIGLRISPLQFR
UniProt Q9H9A5, whole entry, looked up: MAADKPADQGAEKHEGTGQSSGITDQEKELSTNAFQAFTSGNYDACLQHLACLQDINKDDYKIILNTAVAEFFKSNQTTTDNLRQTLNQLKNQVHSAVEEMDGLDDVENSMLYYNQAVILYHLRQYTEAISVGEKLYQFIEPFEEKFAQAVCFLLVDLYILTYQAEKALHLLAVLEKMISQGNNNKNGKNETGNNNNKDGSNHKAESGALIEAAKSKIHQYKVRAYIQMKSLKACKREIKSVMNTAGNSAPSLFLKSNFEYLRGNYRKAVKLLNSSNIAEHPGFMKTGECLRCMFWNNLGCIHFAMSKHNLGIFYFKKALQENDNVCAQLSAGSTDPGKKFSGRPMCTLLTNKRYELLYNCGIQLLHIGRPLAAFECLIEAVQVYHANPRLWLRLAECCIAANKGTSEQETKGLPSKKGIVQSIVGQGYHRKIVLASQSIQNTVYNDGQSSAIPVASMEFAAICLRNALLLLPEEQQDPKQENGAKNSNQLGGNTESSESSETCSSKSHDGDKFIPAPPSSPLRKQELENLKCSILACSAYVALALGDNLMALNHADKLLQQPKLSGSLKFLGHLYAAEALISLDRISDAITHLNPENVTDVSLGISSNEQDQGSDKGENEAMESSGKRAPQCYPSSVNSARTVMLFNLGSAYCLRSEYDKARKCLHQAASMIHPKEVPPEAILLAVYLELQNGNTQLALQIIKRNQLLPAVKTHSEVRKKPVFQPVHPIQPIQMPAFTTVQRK
UniProt P62633: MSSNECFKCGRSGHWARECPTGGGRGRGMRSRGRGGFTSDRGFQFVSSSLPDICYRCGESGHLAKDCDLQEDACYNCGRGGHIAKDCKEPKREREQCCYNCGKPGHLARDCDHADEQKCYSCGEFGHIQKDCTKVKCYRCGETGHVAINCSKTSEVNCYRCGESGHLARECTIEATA
UniProt Q96MX0: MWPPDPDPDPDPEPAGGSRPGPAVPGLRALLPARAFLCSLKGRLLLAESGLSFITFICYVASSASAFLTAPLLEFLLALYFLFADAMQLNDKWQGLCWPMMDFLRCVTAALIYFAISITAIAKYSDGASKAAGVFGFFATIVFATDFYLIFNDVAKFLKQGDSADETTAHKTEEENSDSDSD
UniProt Q9UP83: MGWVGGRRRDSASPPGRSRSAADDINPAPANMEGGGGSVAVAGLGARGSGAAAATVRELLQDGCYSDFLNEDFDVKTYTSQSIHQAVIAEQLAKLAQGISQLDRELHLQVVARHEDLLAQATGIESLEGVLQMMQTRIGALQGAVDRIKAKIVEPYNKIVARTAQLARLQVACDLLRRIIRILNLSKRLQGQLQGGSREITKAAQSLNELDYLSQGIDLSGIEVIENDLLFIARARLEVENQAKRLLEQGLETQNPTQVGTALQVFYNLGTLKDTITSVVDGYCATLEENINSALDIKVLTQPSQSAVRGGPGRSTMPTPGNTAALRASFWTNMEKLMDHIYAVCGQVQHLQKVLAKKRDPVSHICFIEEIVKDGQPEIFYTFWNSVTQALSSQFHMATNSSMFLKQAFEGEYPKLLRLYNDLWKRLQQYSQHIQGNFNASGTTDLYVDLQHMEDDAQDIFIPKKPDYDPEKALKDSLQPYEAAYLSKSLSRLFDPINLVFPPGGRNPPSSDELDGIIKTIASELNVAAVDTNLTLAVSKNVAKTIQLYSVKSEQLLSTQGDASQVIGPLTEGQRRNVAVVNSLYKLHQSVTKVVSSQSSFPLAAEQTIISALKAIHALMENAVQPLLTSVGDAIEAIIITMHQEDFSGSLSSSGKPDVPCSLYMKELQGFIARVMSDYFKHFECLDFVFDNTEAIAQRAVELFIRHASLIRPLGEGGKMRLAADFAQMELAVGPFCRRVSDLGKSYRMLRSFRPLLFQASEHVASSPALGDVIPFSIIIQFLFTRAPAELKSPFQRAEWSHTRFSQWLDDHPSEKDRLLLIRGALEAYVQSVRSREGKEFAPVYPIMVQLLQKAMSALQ
UniProt P53618: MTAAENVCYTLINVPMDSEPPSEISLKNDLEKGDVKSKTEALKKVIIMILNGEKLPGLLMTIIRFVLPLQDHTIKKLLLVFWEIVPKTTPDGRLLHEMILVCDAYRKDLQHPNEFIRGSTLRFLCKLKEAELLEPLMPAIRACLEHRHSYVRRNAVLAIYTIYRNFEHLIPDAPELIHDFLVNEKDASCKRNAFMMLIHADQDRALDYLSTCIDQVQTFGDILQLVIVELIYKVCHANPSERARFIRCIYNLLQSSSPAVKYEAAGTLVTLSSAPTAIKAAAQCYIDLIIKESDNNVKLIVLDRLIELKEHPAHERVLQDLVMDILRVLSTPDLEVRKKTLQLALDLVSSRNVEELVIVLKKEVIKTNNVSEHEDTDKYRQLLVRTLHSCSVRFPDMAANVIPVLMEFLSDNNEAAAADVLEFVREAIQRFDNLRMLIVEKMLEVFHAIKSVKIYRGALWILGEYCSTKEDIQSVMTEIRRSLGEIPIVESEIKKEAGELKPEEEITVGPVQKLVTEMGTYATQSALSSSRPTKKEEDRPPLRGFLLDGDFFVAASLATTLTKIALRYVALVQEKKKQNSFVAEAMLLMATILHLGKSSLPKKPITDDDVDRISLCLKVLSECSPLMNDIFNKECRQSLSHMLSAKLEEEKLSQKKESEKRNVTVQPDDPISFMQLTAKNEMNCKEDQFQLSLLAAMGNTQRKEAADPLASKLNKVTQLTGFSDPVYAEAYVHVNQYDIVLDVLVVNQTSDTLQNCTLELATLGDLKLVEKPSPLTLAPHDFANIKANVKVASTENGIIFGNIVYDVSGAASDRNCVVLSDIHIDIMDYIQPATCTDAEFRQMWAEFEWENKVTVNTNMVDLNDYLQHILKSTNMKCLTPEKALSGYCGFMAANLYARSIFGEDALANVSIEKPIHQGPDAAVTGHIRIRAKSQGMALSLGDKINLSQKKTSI
UniProt Q15417: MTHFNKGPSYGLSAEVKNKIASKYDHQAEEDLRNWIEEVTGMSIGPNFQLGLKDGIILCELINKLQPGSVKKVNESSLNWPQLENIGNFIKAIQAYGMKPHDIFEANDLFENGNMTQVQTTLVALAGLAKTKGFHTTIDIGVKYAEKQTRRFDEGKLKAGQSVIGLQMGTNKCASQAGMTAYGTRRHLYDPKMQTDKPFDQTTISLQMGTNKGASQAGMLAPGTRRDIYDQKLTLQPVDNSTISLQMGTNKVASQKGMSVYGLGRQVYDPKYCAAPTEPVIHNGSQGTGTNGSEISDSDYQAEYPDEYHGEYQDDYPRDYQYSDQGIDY

| Target | probe-labelled cysteine peptide fold change (10 µM) | probe-labelled cysteine peptide fold change (50 µM) |
| --- | --- | --- |
| COG2_Q14746_563_NFSSISAALEDSQSSFSACVPSLSSK (UniProt Q14746) | -0.184 | -0.18 |
| COPS4_Q9BT78_378_QIQSLCFQVNNLLEK (UniProt Q9BT78) | -0.134 | 0.141 |
| COPG2_Q9UBF2_440_EAGLAHLCEFIEDCEHTVLATK (UniProt Q9UBF2) | 0.0037 | 0.0795 |
| COPB2_P35606_276_VWCVASLR (UniProt P35606) | 0.195 | 0.314 |
| CNP_P09543_111_RLDEDLAAYCR (UniProt P09543) | -0.0645 | 0.0555 |
| COPB2_P35606_681_CQFGLAQECLHHAQDYGGLLLLATASGNANMVNK (UniProt P35606) | 0.0552 | 0.106 |
| CNOT1_A5YKK6_1541_YCDPVVLTYQAER (UniProt A5YKK6) | -0.219 | 0.0536 |
| COPG2_Q9UBF2_420_AIVDCIISIVEENPESK (UniProt Q9UBF2) | 0.359 | 0.12 |
| COL4A3BP_Q9Y5P4_84_AVITPHDFDECR (UniProt Q9Y5P4) | 0.236 | 0.115 |
| COPA_P53621_522_KLDALCNIHENIR (UniProt P53621) | 0.00658 | 0.0112 |
| CNOT10_Q9H9A5_327_ALQENDNVCAQLSAGSTDPGK (UniProt Q9H9A5) | 0.384 | 0.392 |
| CNBP_P62633_97_EREQCCYNCGKPGHLAR (UniProt P62633) | -0.318 | -0.318 |
| CNBP_P62633_140_CGETGHVAINCSK (UniProt P62633) | 0.0925 | 0.134 |
| COG4_Q9H9E3_310_YLQVECDR (UniProt Q9H9E3) | 0.101 | 0.164 |
| COL4A3BP_Q9Y5P4_185_YFDACADAVSKDELQR (UniProt Q9Y5P4) | -0.0647 | 0.0677 |
| CMTM3_Q96MX0_38_AFLCSLK (UniProt Q96MX0) | -0.0172 | -0.177 |
| COPG2_Q9UBF2_296_ELAPAVSVLQLFCSSPK (UniProt Q9UBF2) | 0.035 | 0.0896 |
| COG5_Q9UP83_284_DTITSVVDGYCATLEENINSALDIK (UniProt Q9UP83) | 0.0677 | -0.0375 |
| COPB1_P53618_390_TLHSCSVR (UniProt P53618) | 0.194 | 0.33 |
| CNN3_Q15417_59_DGIILCELINK (UniProt Q15417) | -0.09 | 0.126 |
| COPG1_Q9Y678_44_CAHILTK (UniProt Q9Y678) | -0.0958 | 0.0117 |

Source: the supplement of paper PMC12067093, “Discovery and optimisation of a covalent ligand for TRIM25 and its application to targeted protein ubiquitination” (Chemical Science, 2025)
